Measurements taken from patent publication US20240262863A1, “PEPTIDE FRAGMENT AND USE THEREOF” (TOAGOSEI CO., LTD., priority 2021, published 2024).
Some entries share one result that the patent states for a list of compounds.

Tested on: HeLa cells
Experiment: Evaluation of cell membrane penetrating ability of FAM-labelled constructs by flow cytometry
Type: cell-based, human
Conditions: 10 μM, 20 h incubation, FIG. 1
Procedure: The cell membrane penetrating ability of samples 1 to 3 was evaluated using HeLa cells (an established cell line derived from human cervical cancer cells) as eukaryotic cells. […] In addition, “FAM” in Table 2 indicates the abovementioned fluorescent dye.
HeLa cells were cultured in DMEM (Dulbecco's modified Eagle's medium, manufactured by Fuji Film Wako Pure Chemical Industries, Cat. No. 043-30085) containing 10% FBS (fetal bovine serum), which is an ordinary culture medium.
HeLa cells adhering to the culture plate were washed with PBS, 0.25% trypsin/EDTA solution was added, and the cells were incubated for 3 min at 37° C. After incubation, the same DMEM medium including 10% FBS was added to deactivate the trypsin, and the cells were then precipitated by centrifugation for 5 min at 150×g. […]
The cell penetrating ability of Sample 1 was analyzed by using flow cytometry with respect to the cells (cell pellet) obtained above. […]
Gating was performed using the flow cytometer on the basis of forward scatter (FSC) and side scatter (SSC), a gate was set for the cell population under analysis, and fluorescent intensity was measured for the cell population within this gate. […] Fluorescent intensity was measured using the fluorescence detector FL2 (optimal detection wavelength close to 543 nm) of the flow cytometer, which can detect the fluorescent wavelength of FAM. […]

Row | Substance | fluorescence intensity histogram in comparison with Example 4 (only FAM)
1 | FAM-VVRSLVRVVRSLVR-CONH2 (N-terminal FAM; C-terminal amide) [Example 3] | shifted to the right
2 | FAM-VVRSLVKVVRSLVK-CONH2 (N-terminal FAM; C-terminal amide) [Example 2] | shifted to the right
